Measured values published in patent publication US8242055B2, “Herbicidally and insecticidally active phenyl-substituted pyridazinones” (Bayer Cropscience AG, priority 2008, dated 2012).
Some entries share one result that the patent states for a list of compounds. For some of these results: At least one structure is not confirmed: it was looked up by name or label, or the drawing left a doubt.

Experiments:
Type in all cases: in vivo
[1] = tested on: green peach aphid (Myzus persicae); experiment: Myzus test (MYZUPE spray treatment); settings: spray treatment of Chinese cabbage discs, application rate 500 g/ha; 100% = all aphids killed
Veronica persica [2] = experiment: Herbicidal post-emergence activity against harmful plants; settings: application rate 320 g/ha, scored visually after approximately 3 weeks, 100% = plants have died
Viola tricolor = experiment: as above; settings: application rate 320 g/ha, scored visually after approximately 3 weeks, 100% = plants have died
Amaranthus retroflexus = experiment: as above; settings: application rate 320 g/ha, scored visually after approximately 3 weeks, 100% = plants have died
Stellaria media = experiment: Herbicidal pre-emergence effect against harmful plants; settings: application rate 320 g/ha, scored visually after 3 weeks, 100% = plants have died
Matricaria inodora = experiment: as above; settings: application rate 320 g/ha, scored visually after 3 weeks, 100% = plants have died
Veronica persica [3] = experiment: as above; settings: application rate 320 g/ha, scored visually after 3 weeks, 100% = plants have died

| Compound | effect in % (aphids killed) [1] | herbicidal activity in percent (Veronica persica [2]) | herbicidal activity in percent (Viola tricolor) | herbicidal activity in percent (Amaranthus retroflexus) | herbicidal activity in percent (Stellaria media) | herbicidal activity in percent (Matricaria inodora) | herbicidal activity in percent (Veronica persica [3]) |
| --- | --- | --- | --- | --- | --- | --- | --- |
| CC(C)(C)n1ncc(O)c(-c2cc(C(F)(F)F)cc(C(F)(F)F)c2)c1=O [I-1-a-8] | at least 80% | – | – | – | – | – | – |
| Cc1cc(Cl)c(-c2c(O)c(C)nn(C)c2=O)c(Br)c1 [I-1-a-9] | – | at least 80% | at least 80% | at least 80% | – | – | – |
| Cc1cc(Cl)c(-c2c(O)c(C)nn(C)c2=O)c(OC(F)(F)F)c1 [I-1-a-16] | – | – | – | – | at least 90% | at least 90% | at least 90% |
| Cc1nn(C)c(=O)c(-c2c(Br)cc(Br)cc2OC(F)(F)F)c1O [I-1-a-25] | – | at least 80% | at least 80% | at least 80% | – | – | – |
| Cc1nn(C)c(=O)c(-c2ccc(Cl)cc2Cl)c1O [I-1-a-27] | – | at least 80% | at least 80% | at least 80% | – | – | – |
| Cc1nn(C)c(=O)c(-c2c(F)cccc2Cl)c1OC(C)C [I-1-b-1, 5-isopropoxy-4-(2-chloro-6-fluorophenyl)-2,6-dimethyl-3(2H)-pyridazinone] | – | at least 80% | at least 80% | at least 80% | – | – | – |
| Cc1nn(C)c(=O)c(-c2c(Cl)cccc2Cl)c1OC(=O)C(C)C [I-1-b-3] | – | at least 80% | at least 80% | at least 80% | – | – | – |
| CCOC(=O)Oc1c(C)nn(C)c(=O)c1-c1c(F)cccc1Cl [I-1-c-7] | – | at least 80% | at least 80% | at least 80% | – | – | – |
| CCOC(=O)Oc1c(C)nn(C)c(=O)c1-c1c(Cl)cccc1Cl [I-1-c-8] | – | at least 80% | at least 80% | at least 80% | at least 90% | at least 90% | at least 90% |
| CCOC(=O)Oc1c(C)nn(C)c(=O)c1-c1ccc(Cl)cc1Cl [I-1-c-9] | – | at least 80% | at least 80% | at least 80% | – | – | – |
| CCOC(=O)Oc1c(C)nn(C)c(=O)c1-c1c(Cl)cc(C)cc1OC(F)(F)F [I-1-c-13] | – | – | – | – | at least 90% | at least 90% | at least 90% |
| CCOC(=O)Oc1c(C)nn(C)c(=O)c1-c1c(Br)cc(Br)cc1OC(F)(F)F [I-1-c-14] | – | at least 80% | at least 80% | at least 80% | – | – | – |
| Cc1cc(Cl)c(-c2c([O-])c(C)nn(C)c2=O)c(Br)c1.[Na+] [I-1-g-1, sodium salt of 4-(2-bromo-6-chloro-4-methylphenyl)-5-hydroxy-2,6-dimethyl-3(2H)-pyridazinone] | – | at least 80% | at least 80% | at least 80% | – | – | – |
